In general, IC50 refers to the midpoint of a concentration-inhibition curve.

These results are taken from US20250213523A1, “COMBINATION OF HDAC INHIBITORS AND STATINS FOR USE IN THE TREATMENT OF PANCREATIC CANCER” (ISTITUTO NAZIONALE TUMORI IRCCS - FONDAZIONE G. PASCALE, priority 2022, published 2025).

The test system of one assay is KPC ID95. Description: Cell proliferation assay (Sulforhodamine B), IC50. Conditions: Mus musculus; KPC ID95, 96 hours of treatment; read-out: IC50 96 h mean ± SD. Format: cell-based, C57/BL6 mice. The protocol: (§1) FIG. 1. Pancreatic Cancer Cell lines features. A. Basal mRNA basal levels of EMT markers Vimentin and E-Cadherin in PDAC cell lines L3.6pl, BxPC3, COLO357, PANC28, PANC1, ASPC1 and MIAPACA2, in normal pancreatic cells HPDE cells, as well as in 2 established PDX-derived primary cells KPC ID11 and KPC ID95 were determined by qRT-PCR. […] Cells were grown for 48 h before preparation of cell lysates. Proteins were separated by SDS-PAGE and transferred to PVDF membranes using standard protocols. The membranes were probed with specific antibodies and Ponceau Red as total protein loading controls. Data represents representative results of at least three independent experiments.
(§2) Cell proliferation was measured in 96-well plates in cells untreated and treated with described drugs as single agent or in combination. […] Synergism, additivity, and antagonism were quantified after an evaluation of the Combination Index (CI), which was calculated by the Chou-Talalay equation with CalcuSyn software (Biosoft, Cambridge, UK-Chou T C. Cancer Res. 2010 Jan. 15; 70(2):440-6.), as described elsewhere (Terranova-Barberio M, J Exp Clin Cancer Res. 2017; 36(1):177); Bruzzese et al, J Cell Physiol 2011, 226(9):2378-2390). […] The DRI determined the magnitude of dose reduction allowed for each drug when given in combination, compared with the concentration of a single agent that is needed to achieve the same effect. […]

A further assay relates to KPC ID11. Description: Cell proliferation assay (Sulforhodamine B), IC50. Format: cell-based, C57/BL6 mice. Conditions: Mus musculus; KPC ID11, 96 hours of treatment; read-out: IC50 96 h mean ± SD. The procedure:
as §1, §2

For `CC(C)c1c(C(=O)Nc2ccccc2)c(-c2ccccc2)c(-c2ccc(F)cc2)n1CC[C@@H](O)C[C@@H](O)CC(=O)O` [ATOR, Atorvastatin], the IC50 in the assay with KPC ID95 was 4 ± 0.22 µM; with KPC ID11, 3.1 ± 0.2 µM.
